The target in the assay is Thermus thermophilus RuvC (Thermus thermophilus) (UniProt Q5SJC4). Description: crystal structure; Tt-RuvC (7 mg/ml) mixed with Holliday junction DNA at a 1.8:1 molar ratio, 5 mM EDTA; sitting drop vapor diffusion at 25 °C, 0.4 M ammonium phosphate; controlled dehydration, data at room temperature; 3.4 Å; both purified.

These are yes or no findings as the source states them, for the method shown. Some entries that bind do so weakly or less than the wild type.

B1: Thermus thermophilus RuvC (enzyme, UniProt Q5SJC4 1-166)
chain: MVVAGIDPGITHLGLGVVAVEGKGALKARLLHGEVVKTSPQEPAKERVGRIHARVLEVLHRFRPEAVAVEEQFFYRQNELAYKVGWALGAVLVAAFEAGVPVYAYGPMQVKQALAGHGHAAKEEVALMVRGILGLKEAPRPSHLADALAIALTHAFYARMGTAKPL
Consider B1, for which the binding result is “binds”.

These data come from PMC6736871.
